In the supplement of paper PMC10849652:
Some of the results follow.

Amino acid sequences for entries named in this document (tags omitted). A change or cut given only in a name is not applied to a line headed by its entry.
UniProt Q9NQQ7: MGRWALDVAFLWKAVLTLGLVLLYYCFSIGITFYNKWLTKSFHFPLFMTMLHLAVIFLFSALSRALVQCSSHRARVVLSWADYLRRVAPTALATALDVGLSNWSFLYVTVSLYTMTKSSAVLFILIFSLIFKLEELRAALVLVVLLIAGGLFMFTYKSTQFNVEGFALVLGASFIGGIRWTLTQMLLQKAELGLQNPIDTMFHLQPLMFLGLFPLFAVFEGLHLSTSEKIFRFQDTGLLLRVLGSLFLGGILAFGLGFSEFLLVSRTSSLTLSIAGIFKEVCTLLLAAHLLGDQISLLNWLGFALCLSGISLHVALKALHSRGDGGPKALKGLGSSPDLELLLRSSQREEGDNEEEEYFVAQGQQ
UniProt P50443: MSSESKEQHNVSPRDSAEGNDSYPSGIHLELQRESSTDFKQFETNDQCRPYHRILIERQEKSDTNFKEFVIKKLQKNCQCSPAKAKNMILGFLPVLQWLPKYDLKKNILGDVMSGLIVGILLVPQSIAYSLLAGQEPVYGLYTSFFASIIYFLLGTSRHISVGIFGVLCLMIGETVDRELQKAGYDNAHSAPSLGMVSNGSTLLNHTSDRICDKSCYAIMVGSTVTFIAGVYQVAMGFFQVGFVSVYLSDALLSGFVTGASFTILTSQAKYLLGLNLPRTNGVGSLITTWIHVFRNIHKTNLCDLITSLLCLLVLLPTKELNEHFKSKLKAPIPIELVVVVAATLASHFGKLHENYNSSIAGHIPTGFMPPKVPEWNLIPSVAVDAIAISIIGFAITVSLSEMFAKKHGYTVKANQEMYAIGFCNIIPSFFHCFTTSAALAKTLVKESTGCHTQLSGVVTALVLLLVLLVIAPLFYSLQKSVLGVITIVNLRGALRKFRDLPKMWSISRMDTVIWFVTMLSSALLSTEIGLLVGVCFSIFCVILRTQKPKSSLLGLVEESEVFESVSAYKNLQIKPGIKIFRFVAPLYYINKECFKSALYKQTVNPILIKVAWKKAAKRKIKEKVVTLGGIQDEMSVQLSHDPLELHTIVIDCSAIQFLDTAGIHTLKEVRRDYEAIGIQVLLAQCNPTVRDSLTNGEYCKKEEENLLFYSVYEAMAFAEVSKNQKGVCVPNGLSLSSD
UniProt Q8N2U9: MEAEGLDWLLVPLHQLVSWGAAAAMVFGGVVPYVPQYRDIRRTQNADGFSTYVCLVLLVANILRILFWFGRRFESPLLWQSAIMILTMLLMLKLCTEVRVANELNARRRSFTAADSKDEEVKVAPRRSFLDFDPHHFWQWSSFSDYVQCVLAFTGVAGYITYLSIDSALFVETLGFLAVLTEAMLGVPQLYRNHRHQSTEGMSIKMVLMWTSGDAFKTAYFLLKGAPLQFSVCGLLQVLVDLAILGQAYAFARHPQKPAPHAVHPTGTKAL
UniProt P48751: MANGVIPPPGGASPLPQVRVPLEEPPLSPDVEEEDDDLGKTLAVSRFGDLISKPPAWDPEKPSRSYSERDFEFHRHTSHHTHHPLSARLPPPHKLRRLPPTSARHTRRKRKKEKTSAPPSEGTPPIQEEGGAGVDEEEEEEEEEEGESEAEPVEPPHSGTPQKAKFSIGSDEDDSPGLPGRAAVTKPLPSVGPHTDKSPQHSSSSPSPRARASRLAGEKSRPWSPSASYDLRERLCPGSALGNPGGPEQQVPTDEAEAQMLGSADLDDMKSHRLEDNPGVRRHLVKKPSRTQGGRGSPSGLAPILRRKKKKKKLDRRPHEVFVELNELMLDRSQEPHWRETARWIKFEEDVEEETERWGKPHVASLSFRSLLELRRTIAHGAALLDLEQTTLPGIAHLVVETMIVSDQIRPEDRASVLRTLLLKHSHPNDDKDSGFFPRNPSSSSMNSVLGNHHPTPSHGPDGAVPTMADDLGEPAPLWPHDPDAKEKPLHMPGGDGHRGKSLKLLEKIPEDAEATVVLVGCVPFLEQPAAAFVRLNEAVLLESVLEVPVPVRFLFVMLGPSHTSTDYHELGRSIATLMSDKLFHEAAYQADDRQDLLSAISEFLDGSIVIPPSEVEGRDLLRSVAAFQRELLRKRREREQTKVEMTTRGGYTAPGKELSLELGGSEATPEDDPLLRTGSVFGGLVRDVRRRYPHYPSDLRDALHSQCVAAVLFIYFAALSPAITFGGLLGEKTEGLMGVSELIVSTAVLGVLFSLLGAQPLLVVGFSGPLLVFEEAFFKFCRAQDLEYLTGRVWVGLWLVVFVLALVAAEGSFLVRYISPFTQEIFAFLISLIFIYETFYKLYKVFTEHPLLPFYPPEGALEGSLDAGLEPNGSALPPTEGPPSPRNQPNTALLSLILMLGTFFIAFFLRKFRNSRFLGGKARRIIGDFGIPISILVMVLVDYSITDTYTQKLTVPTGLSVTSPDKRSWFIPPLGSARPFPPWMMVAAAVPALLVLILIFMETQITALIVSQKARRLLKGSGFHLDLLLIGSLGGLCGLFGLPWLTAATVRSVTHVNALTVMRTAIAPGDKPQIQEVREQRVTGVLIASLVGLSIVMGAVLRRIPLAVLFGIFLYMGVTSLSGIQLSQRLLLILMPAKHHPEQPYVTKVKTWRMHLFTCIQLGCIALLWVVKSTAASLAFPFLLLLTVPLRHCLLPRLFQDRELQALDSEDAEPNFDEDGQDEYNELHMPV
UniProt Q8IWA5: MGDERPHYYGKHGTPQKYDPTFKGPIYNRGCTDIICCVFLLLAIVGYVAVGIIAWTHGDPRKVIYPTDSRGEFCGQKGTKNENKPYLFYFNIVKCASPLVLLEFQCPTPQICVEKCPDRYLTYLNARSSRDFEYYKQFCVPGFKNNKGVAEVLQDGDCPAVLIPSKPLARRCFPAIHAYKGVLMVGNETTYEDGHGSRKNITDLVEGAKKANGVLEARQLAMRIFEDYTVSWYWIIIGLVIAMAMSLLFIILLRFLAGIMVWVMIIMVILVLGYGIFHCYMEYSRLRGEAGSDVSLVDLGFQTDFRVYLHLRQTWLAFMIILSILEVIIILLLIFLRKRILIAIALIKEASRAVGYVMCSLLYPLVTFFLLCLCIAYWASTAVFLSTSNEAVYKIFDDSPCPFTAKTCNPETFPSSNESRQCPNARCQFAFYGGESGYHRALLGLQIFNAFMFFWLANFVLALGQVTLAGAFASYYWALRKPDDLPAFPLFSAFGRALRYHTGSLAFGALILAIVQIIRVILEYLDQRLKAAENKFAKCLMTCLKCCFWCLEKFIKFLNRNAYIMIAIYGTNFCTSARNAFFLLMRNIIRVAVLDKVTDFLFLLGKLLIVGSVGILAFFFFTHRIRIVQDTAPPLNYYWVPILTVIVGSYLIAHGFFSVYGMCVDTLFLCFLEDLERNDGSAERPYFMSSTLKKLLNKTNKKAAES
UniProt Q9NTN3, whole entry, looked up: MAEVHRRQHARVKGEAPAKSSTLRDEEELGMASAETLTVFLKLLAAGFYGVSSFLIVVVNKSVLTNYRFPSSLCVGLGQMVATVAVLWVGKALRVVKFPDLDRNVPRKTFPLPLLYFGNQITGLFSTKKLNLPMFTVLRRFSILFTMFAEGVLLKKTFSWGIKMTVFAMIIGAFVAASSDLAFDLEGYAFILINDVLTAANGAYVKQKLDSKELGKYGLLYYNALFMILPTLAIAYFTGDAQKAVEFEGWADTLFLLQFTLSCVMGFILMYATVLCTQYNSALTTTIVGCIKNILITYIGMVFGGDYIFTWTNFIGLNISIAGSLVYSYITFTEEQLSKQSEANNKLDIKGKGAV
UniProt Q9UGH3: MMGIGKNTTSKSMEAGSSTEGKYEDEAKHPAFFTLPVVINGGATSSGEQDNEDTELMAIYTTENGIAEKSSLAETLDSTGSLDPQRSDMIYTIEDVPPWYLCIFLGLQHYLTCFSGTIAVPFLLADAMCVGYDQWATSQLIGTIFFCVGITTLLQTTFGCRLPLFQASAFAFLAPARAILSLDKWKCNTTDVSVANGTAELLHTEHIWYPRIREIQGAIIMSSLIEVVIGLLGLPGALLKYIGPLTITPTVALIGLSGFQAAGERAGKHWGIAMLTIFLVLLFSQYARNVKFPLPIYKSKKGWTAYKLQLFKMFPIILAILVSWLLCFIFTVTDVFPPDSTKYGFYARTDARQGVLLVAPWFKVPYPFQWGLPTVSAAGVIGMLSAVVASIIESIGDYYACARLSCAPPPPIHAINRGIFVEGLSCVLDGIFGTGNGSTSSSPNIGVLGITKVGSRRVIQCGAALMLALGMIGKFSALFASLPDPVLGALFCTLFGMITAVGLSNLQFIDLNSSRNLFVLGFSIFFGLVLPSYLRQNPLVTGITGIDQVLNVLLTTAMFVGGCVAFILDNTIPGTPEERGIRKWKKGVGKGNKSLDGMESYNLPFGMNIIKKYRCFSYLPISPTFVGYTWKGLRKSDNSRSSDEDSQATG
UniProt Q9NY26: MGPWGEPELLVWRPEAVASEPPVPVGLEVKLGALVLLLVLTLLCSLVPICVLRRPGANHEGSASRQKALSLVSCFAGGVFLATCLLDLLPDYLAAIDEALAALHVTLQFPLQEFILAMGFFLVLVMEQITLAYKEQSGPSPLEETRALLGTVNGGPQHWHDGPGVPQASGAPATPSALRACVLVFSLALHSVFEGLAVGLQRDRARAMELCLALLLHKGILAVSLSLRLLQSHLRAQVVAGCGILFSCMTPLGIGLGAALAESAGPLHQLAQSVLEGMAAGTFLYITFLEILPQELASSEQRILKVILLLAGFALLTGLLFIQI
UniProt Q695T7: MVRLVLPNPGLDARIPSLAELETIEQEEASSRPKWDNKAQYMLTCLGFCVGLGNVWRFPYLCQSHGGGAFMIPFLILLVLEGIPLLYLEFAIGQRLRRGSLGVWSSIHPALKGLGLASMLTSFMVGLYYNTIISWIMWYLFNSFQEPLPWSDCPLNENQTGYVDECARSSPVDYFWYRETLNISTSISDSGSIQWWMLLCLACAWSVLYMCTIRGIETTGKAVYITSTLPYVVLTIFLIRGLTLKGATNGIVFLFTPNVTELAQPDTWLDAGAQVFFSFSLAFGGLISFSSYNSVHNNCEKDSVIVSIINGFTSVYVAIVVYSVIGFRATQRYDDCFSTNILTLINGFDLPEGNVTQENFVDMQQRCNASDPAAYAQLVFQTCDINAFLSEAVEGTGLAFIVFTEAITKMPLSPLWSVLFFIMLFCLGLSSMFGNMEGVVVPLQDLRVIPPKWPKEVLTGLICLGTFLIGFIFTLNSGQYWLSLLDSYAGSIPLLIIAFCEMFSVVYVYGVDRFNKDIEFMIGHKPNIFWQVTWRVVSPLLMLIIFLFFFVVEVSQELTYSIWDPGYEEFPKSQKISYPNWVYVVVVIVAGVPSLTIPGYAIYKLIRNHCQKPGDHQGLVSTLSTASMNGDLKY
UniProt Q96GZ6: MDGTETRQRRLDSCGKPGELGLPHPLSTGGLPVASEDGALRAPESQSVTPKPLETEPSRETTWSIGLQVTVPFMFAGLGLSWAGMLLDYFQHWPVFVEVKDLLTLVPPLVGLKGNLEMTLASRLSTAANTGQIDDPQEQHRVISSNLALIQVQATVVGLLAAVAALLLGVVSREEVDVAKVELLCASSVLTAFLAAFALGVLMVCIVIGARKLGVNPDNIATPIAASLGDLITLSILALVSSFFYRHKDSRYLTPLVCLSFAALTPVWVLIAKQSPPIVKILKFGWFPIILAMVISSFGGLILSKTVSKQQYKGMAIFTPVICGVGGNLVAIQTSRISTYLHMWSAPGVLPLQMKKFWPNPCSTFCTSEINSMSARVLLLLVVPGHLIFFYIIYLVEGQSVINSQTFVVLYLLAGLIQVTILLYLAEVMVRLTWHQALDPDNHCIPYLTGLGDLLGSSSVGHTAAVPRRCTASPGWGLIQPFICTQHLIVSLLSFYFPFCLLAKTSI
UniProt P09131: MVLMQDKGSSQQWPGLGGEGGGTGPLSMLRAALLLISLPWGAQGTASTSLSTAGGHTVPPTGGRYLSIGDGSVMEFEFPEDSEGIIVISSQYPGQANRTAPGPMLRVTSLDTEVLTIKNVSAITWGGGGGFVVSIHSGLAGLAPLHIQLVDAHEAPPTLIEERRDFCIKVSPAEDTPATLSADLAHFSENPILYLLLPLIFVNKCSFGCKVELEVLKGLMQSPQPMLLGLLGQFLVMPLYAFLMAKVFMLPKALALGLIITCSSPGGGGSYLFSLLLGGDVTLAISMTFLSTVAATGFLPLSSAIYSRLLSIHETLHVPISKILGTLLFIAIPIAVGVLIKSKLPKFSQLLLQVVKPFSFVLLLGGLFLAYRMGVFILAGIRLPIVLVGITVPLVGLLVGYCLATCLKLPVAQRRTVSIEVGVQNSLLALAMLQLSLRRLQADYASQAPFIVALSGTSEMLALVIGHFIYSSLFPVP
UniProt Q969S0: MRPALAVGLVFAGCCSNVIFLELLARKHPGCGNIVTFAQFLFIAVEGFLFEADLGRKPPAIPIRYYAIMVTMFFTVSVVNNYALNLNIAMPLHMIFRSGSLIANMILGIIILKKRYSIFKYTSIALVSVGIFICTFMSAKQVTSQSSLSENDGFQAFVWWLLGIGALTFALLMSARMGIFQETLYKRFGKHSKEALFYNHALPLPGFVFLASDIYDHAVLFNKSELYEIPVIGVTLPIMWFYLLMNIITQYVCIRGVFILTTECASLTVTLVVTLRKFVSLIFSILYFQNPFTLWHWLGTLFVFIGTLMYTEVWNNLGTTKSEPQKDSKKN

What was measured:
Experiment in all cases: log2 fold change, soluble protein after heating vs DMSO (PISA); higher = thermal stabilisation; K562 cells, 10 uM, 30 min; active = over 0.2 and 3.5 SD of the protein, either way, in both replicates (recomputed)
volasertib = compound: CC[C@@H]1C(=O)N(C)c2cnc(Nc3ccc(C(=O)N[C@H]4CC[C@H](N5CCN(CC6CC6)CC5)CC4)cc3OC)nc2N1C(C)C [volasertib]
Summary of the method: (§1)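 K562 cells at 2×10^6 cells/mL were exposed to 10 μM compound for 30 min, then aliquots were heated for 3 min across 48°C-58°C, pooled, and extracted in PBS containing 0.5% NP-40 at 4°C. The supernatant after 21,000xg for 90 min was taken as soluble protein and measured by TMTpro 16plex LC-MS/MS with channel sums equalised. Thermal stability is reported relative to control samples, with values from duplicates. Fold changes are given on a log2 scale.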

[1] = compound: CC[C@H](C)N1C=C(C2=C(C=C(C=C21)C3=CN=C(C=C3)N4CCNCC4)C(=O)NCC5=C(C=C(NC5=O)C)C)C
Summary of the method: as §1

epoxomicin = compound: CC[C@H](C)[C@@H](C(=O)N[C@@H]([C@@H](C)O)C(=O)N[C@@H](CC(C)C)C(=O)[C@]1(CO1)C)NC(=O)[C@H]([C@@H](C)CC)N(C)C(=O)C [epoxomicin]
Summary of the method: as §1

[2] = compound: CCn1c(C(=O)N(C2CC2)C2CC2)cc2c3c(ncn3C)c(Nc3cc(C)n(C)n3)nc21
Summary of the method: as §1

[3] = compound: CCn1cc(-c2ccnc3[nH]c(-c4cccc(CN(C)C)c4)cc23)c(-c2ccc(NC(=O)N(C)C)cc2)n1
Summary of the method: as §1

rosiglitazone = compound: CN(CCOC1=CC=C(C=C1)C[C@H]2C(=O)NC(=O)S2)C3=CC=CC=N3 (racemic) [rosiglitazone]
Summary of the method: as §1

[4] = compound: CN1C2=C(C3=C1C(=O)N(N=C3)CC4=CC(=CC=C4)N)SC(=C2)S(=O)C
Summary of the method: as §1

[5] = compound: CN1CCC(CNc2ccc3ncc(-c4cccc(OC(F)(F)F)c4)n3n2)CC1
Summary of the method: as §1

saracatinib = compound: CN1CCN(CCOc2cc(OC3CCOCC3)c3c(Nc4c(Cl)ccc5c4OCO5)ncnc3c2)CC1 [saracatinib]
Summary of the method: as §1

sotrastaurin = compound: CN1CCN(c2nc(C3=C(c4c[nH]c5ccccc45)C(=O)NC3=O)c3ccccc3n2)CC1 [sotrastaurin]
Summary of the method: as §1

Tubastatin A = compound: CN1CCc2c(c3ccccc3n2Cc2ccc(C(=O)NO)cc2)C1 [Tubastatin A]
Summary of the method: as §1

[6] = compound: CNC(=O)C1=CC=CC=C1NC2=NC(=NC=C2Cl)NC3=C(C=C(C=C3)N4CCOCC4)OC
Summary of the method: as §1

[7] = compound: CNc1nc(-c2ccc3c(N)n[nH]c3c2)cc(N2C[C@@H](C(=O)NC3CCCCC3)CC[C@H]2C)n1
Summary of the method: as §1

[8] = compound: CC[C@@H]1C(=O)N(C)c2cnc(Nc3ccc(C(=O)NC4CCN(C)CC4)cc3OC)nc2N1C1CCCC1
Summary of the method: as §1

alvocidib = compound: CN1CC[C@H](c2c(O)cc(O)c3c(=O)cc(-c4ccccc4Cl)oc23)[C@H](O)C1 [alvocidib]
Summary of the method: as §1

rucaparib = compound: CNCc1ccc(-c2[nH]c3cc(F)cc4c3c2CCNC4=O)cc1 [rucaparib]
Summary of the method: as §1

encorafenib = compound: COC(=O)N[C@@H](C)CNc1nccc(-c2cn(C(C)C)nc2-c2cc(Cl)cc(NS(C)(=O)=O)c2F)n1 [encorafenib]
Summary of the method: as §1

[9] = compound: CN(C)CC(=O)Nc1ccc2[nH]c(=O)c3ccccc3c2c1
Summary of the method: as §1

defactinib = compound: CNC(=O)c1ccc(Nc2ncc(C(F)(F)F)c(NCc3nccnc3N(C)S(C)(=O)=O)n2)cc1 [defactinib]
Summary of the method: as §1

[10] = compound: COC(=O)[C@H](CCSC)NC(=O)C1=C(C=C(C=C1)NC[C@H](CS)N)C2=CC=CC=C2
Summary of the method: as §1

Measured: log2 fold change

SLC3A2 (UniProt F5H867)
inactive: volasertib -0.01 | [1] 0.263 | epoxomicin -0.179 | [2] -0.062 | [3] 0.05 | rosiglitazone 0.163 | [4] -0.023 | [5] 0.004 | saracatinib 0.058 | sotrastaurin 0.148 | Tubastatin A 0.003 | [6] -0.139 | [7] -0.084

SLC26A11 (UniProt I3L0N9)
inactive: rosiglitazone 0.078

SLC35C2 isoform 3 (UniProt Q9NQQ7)
inactive: [8] 0.048 | [1] -0.168 | epoxomicin 0.061 | [2] 0.169 | rosiglitazone 0.009 | alvocidib 0.095 | [6] -0.086 | rucaparib -0.08 | encorafenib -0.086

SLC26A2 (UniProt P50443)
inactive: [1] -0.251 | epoxomicin 0.045 | [3] 0.089 | [9] 0.007 | [4] 0.292 | [5] -0.116 | saracatinib -0.079 | defactinib 0.02 | [7] 0.032 | [10] 0.027

SLC35E2B (UniProt P0CK96)
inactive: volasertib -0.171 | [9] -0.093 | rosiglitazone 0.021 | sotrastaurin 0.114 | alvocidib 0.108 | defactinib 0.109 | [10] 0.083

SLC66A2 (UniProt Q8N2U9)
inactive: [1] -0.085 | epoxomicin 0.103 | [2] 0.509 | rosiglitazone 0.175 | [6] 0.053

2 entries picked at random from the list so far, as already listed:
SLC66A2 (UniProt Q8N2U9)
inactive: [1] -0.085 | epoxomicin 0.103 | [2] 0.509 | rosiglitazone 0.175 | [6] 0.053

SLC35C2 isoform 3 (UniProt Q9NQQ7)
inactive: [8] 0.048 | [1] -0.168 | epoxomicin 0.061 | [2] 0.169 | rosiglitazone 0.009 | alvocidib 0.095 | [6] -0.086 | rucaparib -0.08 | encorafenib -0.086

(list continues)

SLC4A3 isoform 3 (UniProt P48751)
inactive: [1] -0.136 | rosiglitazone 0.081

SLC44A2 isoform 2 (UniProt Q8IWA5)
inactive: [8] 0.2 | [1] 0 | epoxomicin 0.053 | [3] -0.105 | [9] -0.048 | [4] -0.154 | [5] 0.259 | saracatinib 0.104 | sotrastaurin 0.056 | Tubastatin A -0.053 | [6] -0.055 | defactinib -0.137 | rucaparib -0.044 | [7] 0.043 | encorafenib -0.125 | [10] 0.02

SLC35D1 (UniProt Q9NTN3)
inactive: volasertib -0.363 | [9] 0.012 | alvocidib 0.111 | Tubastatin A -0.148 | defactinib -0.044 | [10] -0.094

SLC23A2 (UniProt Q9UGH3)
inactive: [1] 0.035 | [2] -0.037 | rosiglitazone 0.084 | sotrastaurin 0.165 | Tubastatin A 0.101 | [6] -0.024

SLC39A1 (UniProt Q9NY26)
inactive: [3] -0.014 | [5] -0.051 | [6] -0.129

SLC6A19 (UniProt Q695T7)
inactive: volasertib 0.078 | [4] 0.038 | saracatinib -0.04 | alvocidib -0.105 | [7] -0.099

SLC41A3 isoform 9 (UniProt Q96GZ6)
inactive: [8] 0.081 | [1] -0.072 | epoxomicin -0.07 | [2] 0.009 | [3] 0.081 | rosiglitazone 0.062 | [5] -0.058 | sotrastaurin 0.134 | Tubastatin A -0.124 | [6] 0.056 | rucaparib -0.188 | encorafenib 0.029

SLC22A4 (UniProt Q9H015)
inactive: volasertib 0.071 | epoxomicin -0.048 | [9] -0.013 | [4] -0.075 | saracatinib -0.08 | alvocidib 0.072 | Tubastatin A 0.022 | defactinib -0.09 | [7] 0.062 | [10] 0.129

SLC10A3 (UniProt P09131)
inactive: [1] 0.004 | epoxomicin 0.141 | [2] 0.044 | rosiglitazone -0.081 | Tubastatin A -0.078 | [6] -0.095

SLC35F5 (UniProt Q8WV83)
inactive: volasertib -0.144 | [1] 0.27 | epoxomicin 0.171 | [3] 0.046 | rosiglitazone -0.222 | [5] -0.276 | sotrastaurin 0.082

SLC35B4 (UniProt Q969S0)
inactive: [8] -0.003 | [1] -0.041 | epoxomicin 0.044 | [9] -0.134 | sotrastaurin 0.012 | Tubastatin A 0.014 | [6] 0.046 | defactinib 0.086 | rucaparib 0.036 | encorafenib -0.015 | [10] -0.146
